Laboratory results published in the supplement of paper PMC10849652.
The other results are listed elsewhere or left out.

By UniProt entry, the sequences of proteins in these tests, tags left out. Where a name states a change or a piece, a line headed by the entry shows the natural chain unless it says otherwise.
UniProt P04792, whole entry, looked up: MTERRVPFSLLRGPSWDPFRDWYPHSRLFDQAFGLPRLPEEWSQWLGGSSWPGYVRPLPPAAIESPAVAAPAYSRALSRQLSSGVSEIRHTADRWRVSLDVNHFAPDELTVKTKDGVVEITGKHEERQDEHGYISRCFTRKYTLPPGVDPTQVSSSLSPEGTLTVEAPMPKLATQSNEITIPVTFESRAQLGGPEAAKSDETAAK
UniProt Q00839, whole entry, looked up: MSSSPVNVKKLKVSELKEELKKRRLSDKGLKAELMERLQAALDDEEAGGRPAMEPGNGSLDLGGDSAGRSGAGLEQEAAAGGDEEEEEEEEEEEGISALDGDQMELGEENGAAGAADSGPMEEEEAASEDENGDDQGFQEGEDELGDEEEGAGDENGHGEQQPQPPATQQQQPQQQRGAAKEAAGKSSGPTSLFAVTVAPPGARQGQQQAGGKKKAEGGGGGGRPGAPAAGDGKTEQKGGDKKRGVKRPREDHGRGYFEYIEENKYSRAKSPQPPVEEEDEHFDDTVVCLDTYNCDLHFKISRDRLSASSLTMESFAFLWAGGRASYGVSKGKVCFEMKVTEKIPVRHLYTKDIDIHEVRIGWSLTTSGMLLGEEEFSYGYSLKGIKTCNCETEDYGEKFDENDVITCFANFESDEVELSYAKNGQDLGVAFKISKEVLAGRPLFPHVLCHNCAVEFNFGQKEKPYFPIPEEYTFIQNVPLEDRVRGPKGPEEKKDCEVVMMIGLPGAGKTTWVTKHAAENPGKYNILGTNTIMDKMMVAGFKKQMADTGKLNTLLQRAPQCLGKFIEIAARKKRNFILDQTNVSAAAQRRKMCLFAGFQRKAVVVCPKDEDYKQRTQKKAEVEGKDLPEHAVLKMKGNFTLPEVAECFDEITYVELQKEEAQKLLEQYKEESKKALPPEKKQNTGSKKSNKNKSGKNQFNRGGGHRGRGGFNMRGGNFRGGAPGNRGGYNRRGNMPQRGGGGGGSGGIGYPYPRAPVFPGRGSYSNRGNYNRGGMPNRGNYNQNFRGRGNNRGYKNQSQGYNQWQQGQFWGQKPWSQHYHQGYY
UniProt P31943: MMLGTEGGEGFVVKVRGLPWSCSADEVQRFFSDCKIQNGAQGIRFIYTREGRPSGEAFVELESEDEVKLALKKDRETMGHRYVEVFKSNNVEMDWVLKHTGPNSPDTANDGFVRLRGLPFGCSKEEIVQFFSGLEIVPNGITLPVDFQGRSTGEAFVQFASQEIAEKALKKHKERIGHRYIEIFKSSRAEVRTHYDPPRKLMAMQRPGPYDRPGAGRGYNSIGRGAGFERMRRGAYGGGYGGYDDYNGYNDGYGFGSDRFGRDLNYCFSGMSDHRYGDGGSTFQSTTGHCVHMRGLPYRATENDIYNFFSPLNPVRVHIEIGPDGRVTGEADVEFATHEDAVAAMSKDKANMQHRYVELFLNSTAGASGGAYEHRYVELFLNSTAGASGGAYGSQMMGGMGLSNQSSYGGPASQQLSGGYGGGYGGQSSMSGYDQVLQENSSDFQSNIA
UniProt P05114: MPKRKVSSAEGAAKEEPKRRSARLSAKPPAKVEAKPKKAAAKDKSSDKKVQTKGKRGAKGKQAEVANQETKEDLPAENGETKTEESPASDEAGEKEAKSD
UniProt Q0VDF9: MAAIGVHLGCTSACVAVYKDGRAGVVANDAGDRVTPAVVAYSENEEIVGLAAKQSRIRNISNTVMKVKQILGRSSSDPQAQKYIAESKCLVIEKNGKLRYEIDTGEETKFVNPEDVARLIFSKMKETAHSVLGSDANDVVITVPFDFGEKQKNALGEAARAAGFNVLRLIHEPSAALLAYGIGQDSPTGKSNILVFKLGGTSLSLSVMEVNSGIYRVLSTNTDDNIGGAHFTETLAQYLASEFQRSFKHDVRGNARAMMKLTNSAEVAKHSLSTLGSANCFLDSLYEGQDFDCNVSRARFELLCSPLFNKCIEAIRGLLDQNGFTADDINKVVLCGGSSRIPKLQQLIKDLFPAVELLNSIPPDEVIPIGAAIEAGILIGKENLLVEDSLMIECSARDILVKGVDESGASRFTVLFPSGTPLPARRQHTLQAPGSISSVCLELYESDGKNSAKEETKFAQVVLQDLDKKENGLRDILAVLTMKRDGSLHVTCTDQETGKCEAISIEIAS
UniProt Q9BUP3: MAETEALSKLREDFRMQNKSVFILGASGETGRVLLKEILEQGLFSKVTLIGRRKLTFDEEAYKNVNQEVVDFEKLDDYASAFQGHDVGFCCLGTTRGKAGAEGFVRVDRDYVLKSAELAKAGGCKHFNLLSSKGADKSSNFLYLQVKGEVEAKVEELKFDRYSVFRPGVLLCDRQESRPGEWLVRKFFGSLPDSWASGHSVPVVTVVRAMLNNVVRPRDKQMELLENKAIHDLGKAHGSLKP
UniProt P30519: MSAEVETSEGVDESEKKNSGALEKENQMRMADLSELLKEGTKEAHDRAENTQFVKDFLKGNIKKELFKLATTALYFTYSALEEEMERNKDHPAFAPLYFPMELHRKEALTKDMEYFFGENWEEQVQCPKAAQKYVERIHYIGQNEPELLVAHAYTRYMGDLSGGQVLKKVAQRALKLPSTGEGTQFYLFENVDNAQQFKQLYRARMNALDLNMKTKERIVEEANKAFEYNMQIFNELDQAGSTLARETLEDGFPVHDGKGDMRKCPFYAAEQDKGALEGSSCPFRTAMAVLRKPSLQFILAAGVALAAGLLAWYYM
UniProt Q14527: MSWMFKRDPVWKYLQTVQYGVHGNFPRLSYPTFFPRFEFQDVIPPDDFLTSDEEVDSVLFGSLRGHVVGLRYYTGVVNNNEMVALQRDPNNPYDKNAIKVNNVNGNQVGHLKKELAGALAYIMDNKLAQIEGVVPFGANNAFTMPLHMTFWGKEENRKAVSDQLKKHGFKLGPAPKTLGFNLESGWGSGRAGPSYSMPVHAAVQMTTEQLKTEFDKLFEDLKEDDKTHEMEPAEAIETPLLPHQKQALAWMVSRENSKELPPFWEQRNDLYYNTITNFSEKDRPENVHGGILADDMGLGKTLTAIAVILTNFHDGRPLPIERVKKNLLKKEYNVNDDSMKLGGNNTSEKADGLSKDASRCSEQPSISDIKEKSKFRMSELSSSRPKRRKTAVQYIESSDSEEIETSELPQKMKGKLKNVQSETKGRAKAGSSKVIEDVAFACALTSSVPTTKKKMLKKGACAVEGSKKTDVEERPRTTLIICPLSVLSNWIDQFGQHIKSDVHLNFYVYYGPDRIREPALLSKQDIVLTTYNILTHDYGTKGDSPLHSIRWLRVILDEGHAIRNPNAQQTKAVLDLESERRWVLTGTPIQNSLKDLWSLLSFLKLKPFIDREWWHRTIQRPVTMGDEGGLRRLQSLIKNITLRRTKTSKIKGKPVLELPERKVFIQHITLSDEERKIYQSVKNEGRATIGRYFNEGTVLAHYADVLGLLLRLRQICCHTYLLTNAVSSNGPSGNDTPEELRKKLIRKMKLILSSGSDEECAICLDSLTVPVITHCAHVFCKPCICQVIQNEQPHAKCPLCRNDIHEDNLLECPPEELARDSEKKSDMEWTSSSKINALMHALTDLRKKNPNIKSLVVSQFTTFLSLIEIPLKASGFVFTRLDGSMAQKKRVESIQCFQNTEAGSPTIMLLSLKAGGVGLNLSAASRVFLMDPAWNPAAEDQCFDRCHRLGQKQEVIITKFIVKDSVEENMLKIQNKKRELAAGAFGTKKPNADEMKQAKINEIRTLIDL
UniProt Q58FF6, whole entry, looked up: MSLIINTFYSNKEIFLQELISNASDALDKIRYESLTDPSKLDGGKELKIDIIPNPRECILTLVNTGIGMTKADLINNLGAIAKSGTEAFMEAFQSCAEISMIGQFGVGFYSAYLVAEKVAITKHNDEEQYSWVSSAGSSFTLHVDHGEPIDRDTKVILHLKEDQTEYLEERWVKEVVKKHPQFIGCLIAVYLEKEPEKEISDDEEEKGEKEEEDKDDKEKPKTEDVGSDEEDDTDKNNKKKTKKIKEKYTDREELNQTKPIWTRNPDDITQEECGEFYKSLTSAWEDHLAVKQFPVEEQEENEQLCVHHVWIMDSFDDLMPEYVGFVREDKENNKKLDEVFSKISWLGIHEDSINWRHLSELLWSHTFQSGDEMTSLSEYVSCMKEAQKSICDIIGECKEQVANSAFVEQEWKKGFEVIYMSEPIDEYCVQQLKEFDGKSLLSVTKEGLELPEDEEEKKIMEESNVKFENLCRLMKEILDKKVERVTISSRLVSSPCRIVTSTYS
UniProt Q9NZL4: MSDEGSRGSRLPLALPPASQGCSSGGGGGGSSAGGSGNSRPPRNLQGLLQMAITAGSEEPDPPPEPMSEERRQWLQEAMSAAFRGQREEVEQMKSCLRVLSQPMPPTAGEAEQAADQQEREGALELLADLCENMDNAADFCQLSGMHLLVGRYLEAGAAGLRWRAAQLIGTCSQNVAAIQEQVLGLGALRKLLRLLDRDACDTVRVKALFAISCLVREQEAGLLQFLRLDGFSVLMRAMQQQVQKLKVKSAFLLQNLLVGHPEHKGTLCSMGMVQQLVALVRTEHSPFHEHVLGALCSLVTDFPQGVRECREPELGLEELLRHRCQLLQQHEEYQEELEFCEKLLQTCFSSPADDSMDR
UniProt Q86VS8: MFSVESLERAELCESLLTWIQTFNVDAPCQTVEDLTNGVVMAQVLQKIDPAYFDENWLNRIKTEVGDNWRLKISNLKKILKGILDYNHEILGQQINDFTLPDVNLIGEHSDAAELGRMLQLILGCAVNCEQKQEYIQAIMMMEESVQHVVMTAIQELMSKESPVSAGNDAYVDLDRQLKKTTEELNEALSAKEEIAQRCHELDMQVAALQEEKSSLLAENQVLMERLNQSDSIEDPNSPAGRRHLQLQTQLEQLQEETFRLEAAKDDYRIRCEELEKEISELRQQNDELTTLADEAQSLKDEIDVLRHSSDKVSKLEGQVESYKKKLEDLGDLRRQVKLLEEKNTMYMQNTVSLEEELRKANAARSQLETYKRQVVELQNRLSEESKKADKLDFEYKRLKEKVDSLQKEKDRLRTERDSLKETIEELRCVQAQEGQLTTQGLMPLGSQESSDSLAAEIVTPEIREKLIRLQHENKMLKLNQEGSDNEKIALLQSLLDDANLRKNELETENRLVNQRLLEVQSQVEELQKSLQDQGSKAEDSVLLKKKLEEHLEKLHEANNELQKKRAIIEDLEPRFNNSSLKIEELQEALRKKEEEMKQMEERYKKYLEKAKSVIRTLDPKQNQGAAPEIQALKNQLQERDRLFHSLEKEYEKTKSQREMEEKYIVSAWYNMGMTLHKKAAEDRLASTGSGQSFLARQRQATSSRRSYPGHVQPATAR
UniProt P51991: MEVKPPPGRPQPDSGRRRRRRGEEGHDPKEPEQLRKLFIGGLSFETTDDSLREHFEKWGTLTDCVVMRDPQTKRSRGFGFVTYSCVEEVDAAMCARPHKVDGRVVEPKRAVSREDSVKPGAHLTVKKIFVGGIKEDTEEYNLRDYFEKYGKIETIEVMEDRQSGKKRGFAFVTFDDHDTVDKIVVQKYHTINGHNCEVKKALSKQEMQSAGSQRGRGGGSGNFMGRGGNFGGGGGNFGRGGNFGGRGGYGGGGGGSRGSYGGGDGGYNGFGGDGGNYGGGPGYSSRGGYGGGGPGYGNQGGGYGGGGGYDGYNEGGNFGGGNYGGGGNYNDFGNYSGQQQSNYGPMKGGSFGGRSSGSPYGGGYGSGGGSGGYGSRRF
UniProt P54652, whole entry, looked up: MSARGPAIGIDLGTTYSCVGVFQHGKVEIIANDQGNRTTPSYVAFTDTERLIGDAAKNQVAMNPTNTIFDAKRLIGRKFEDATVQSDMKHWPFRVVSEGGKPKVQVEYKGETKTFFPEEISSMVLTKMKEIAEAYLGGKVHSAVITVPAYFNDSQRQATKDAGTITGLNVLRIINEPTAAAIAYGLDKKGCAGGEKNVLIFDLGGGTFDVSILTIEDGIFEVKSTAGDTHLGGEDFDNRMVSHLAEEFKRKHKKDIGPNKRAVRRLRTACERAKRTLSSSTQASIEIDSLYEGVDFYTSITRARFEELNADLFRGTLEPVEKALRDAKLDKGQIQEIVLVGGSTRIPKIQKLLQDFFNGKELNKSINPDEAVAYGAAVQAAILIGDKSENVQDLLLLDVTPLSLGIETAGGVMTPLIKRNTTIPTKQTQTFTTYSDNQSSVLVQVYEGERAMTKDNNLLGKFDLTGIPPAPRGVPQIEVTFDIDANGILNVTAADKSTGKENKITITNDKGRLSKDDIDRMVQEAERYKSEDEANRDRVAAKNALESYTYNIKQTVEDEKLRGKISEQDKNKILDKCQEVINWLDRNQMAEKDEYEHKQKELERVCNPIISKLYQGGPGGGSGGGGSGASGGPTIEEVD
UniProt P26583: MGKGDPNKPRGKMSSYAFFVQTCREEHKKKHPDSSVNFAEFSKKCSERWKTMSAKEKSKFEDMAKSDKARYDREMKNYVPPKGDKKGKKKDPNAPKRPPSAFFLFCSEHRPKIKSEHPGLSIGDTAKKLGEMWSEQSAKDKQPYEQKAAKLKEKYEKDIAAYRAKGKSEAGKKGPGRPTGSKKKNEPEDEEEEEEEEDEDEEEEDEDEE
UniProt Q15651: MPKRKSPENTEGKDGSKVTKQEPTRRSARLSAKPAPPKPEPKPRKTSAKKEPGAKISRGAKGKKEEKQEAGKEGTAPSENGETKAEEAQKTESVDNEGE

How the values were obtained:
Assay in all cases: log2 fold change, soluble protein after heating vs DMSO (PISA); higher = thermal stabilisation; K562 cells, 10 uM, 30 min; active = over 0.2 and 3.5 SD of the protein, either way, in both replicates (recomputed)
erlotinib = compound: C#Cc1cccc(Nc2ncnc3cc(OCCOC)c(OCCOC)cc23)c1 [erlotinib]
In short: (§1)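 K562 cells at 2×10^6 cells/mL were exposed to 10 μM compound for 30 min, then aliquots were heated for 3 min across 48°C-58°C, pooled, and extracted in PBS containing 0.5% NP-40 at 4°C. The supernatant after 21,000xg for 90 min was taken as soluble protein and measured by TMTpro 16plex LC-MS/MS with channel sums equalised. Thermal stability is reported relative to control samples, with values from duplicates. Fold changes are given on a log2 scale.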

[1] = compound: C/C(=N\NC(=O)C1=CC(=CC=C1)S(=O)(=O)N2CCOCC2)/C3=C(C=CC(=C3)Cl)O
In short: as §1

[2] = compound: C1=CC(=C(C=C1Cl)C2=NC3=NC=CN=C3C(=N2)NC4=CC=NC=C4)F
In short: as §1

[3] = compound: C1=CC(=CC=C1C2=NC3=C(N2)C=C(C=C3)C(=O)N)OC4=CC=C(C=C4)Cl
In short: as §1

[4] = compound: C1=CC2=C(C=CC(=C2)/C=C\3/C(=O)NC(=NCC4=CC=CS4)S3)N=C1
In short: as §1

[5] = compound: C1=CC2=NC=CN=C2C=C1/C=C/3\C(=O)NC(=O)S3
In short: as §1

[6] = compound: C1=CC=C(C=C1)C2=NC(=C(N2)C3=CC=NC=C3)C4=CC(=C(C=C4)Cl)O
In short: as §1

[7] = compound: C1=CC=C2C(=C1)C3=NNC4=CC=CC(=C43)C2=O
In short: as §1

[8] = compound: C1CCN(C1)C(=O)NC2=CC=CC(=C2)NC3=NC=C(C(=N3)NCCC4=CN=CN4)Br
In short: as §1

[9] = compound: C1CN(CCC1(CC2=CC=C(C=C2)Cl)N)C3=NC=NC4=C3C=CN4
In short: as §1

Measured: log2 fold change

HYOU1 (UniProt Q9Y4L1)
inactive: erlotinib -0.048 | [1] -0.062 | [2] -0.013 | [3] -0.03 | [4] -0.07 | [5] 0.014 | [6] 0.008 | [7] 0.061 | [8] -0.018 | [9] -0.042

HSPB1 (UniProt P04792)
inactive: erlotinib 0.007 | [1] 0.018 | [2] -0.062 | [3] 0.003 | [4] 0.008 | [5] 0 | [6] 0.027 | [7] -0.019 | [8] -0.009 | [9] -0.116

HRC (UniProt P23327)
inactive: erlotinib 0.012 | [1] -0.056 | [2] 0.042 | [3] -0.018 | [4] 0.005 | [5] 0.023 | [6] -0.021 | [7] -0.087 | [8] 0.041 | [9] 0.045

HNRNPU (UniProt Q00839)
inactive: erlotinib -0.016 | [1] -0.005 | [2] -0.163 | [3] -0.013 | [4] -0.038 | [5] 0.021 | [6] -0.019 | [7] -0.071 | [8] 0.009 | [9] -0.238

HIST2H2AA3 (UniProt Q6FI13)
inactive: erlotinib -0.115 | [1] -0.063 | [2] -0.422 | [3] 0.052 | [4] -0.205 | [5] 0.146 | [6] 0.014 | [7] 0.023 | [8] 0.065 | [9] -0.477

HNRNPH1 (UniProt P31943)
inactive: erlotinib 0.043 | [1] 0.102 | [2] -0.04 | [3] 0.004 | [4] -0.035 | [5] -0.012 | [6] -0.016 | [7] 0.007 | [8] -0.1 | [9] -0.023

HMGN4 (UniProt O00479)
inactive: erlotinib -0.159 | [1] 0.178 | [2] 0.421 | [3] 0.11 | [4] -0.35 | [5] -0.066 | [6] 0.252 | [7] 0.086 | [8] 0.042 | [9] -0.083

HMGN1 (UniProt P05114)
inactive: erlotinib -0.069 | [1] -0.114 | [2] -0.011 | [3] 0.066 | [4] -0.114 | [5] 0.045 | [6] -0.062 | [7] -0.059 | [8] 0.029 | [9] -0.028

HSPA14 (UniProt Q0VDF9)
inactive: erlotinib 0.048 | [1] 0.062 | [2] -0.06 | [3] -0.026 | [4] 0.064 | [5] 0.015 | [6] -0.021 | [7] 0.014 | [8] -0.046 | [9] -0.18

HPCAL1 (UniProt P37235)
inactive: erlotinib 0.011 | [1] 0.048 | [2] 0.029 | [3] 0 | [4] 0 | [5] 0.057 | [6] -0.063 | [7] 0.002 | [8] 0.013 | [9] -0.034

HS2ST1 (UniProt Q7LGA3)
inactive: erlotinib 0.018 | [1] -0.057 | [2] -0.091 | [3] -0.008 | [4] 0.023 | [5] -0.004 | [6] -0.078 | [7] 0.024 | [8] 0.009 | [9] 0.012

HSP90AA1 isoform 2 (UniProt P07900)
inactive: erlotinib -0.013 | [1] 0.037 | [2] 0.044 | [3] -0.002 | [4] -0.031 | [5] 0.004 | [6] 0.008 | [7] 0.063 | [8] 0.026 | [9] 0.007

ICE2 (UniProt Q659A1)
inactive: erlotinib 0.154 | [1] 0.069 | [2] -0.146 | [3] 0.044 | [4] 0.079 | [5] 0.017 | [7] 0.007

HTATIP2 isoform 3 (UniProt Q9BUP3)
inactive: erlotinib 0.016 | [1] 0.112 | [2] 0.016 | [3] -0.02 | [4] -0.143 | [5] 0.005 | [6] 0.012 | [7] 0.033 | [8] -0.039 | [9] 0.005

HMOX2 (UniProt P30519)
inactive: erlotinib 0.065 | [1] 0.057 | [2] 0.039 | [3] -0.038 | [4] 0.024 | [5] -0.023 | [6] 0.03 | [7] 0.032 | [8] -0.04 | [9] 0.016

HLTF (UniProt Q14527)
inactive: erlotinib -0.005 | [1] 0.018 | [2] 0.068 | [3] 0.039 | [4] 0.034 | [5] -0.067 | [6] -0.009 | [7] 0.044 | [8] -0.016 | [9] -0.011

HIST2H3A (UniProt Q71DI3)
inactive: erlotinib 0.113 | [1] -0.114 | [2] -0.305 | [3] -0.028 | [4] 0.011 | [5] 0.221 | [6] 0.047 | [7] -0.004 | [8] 0.287 | [9] -0.378

HSP90AB4P (UniProt Q58FF6)
inactive: erlotinib 0.168 | [1] 0.1 | [2] -0.098 | [3] 0.113 | [4] 0.015 | [5] 0.081 | [7] 0.141 | [8] -0.152 | [9] -0.077

Copied from the listing (2 entries):
HIST2H3A (UniProt Q71DI3)
inactive: erlotinib 0.113 | [1] -0.114 | [2] -0.305 | [3] -0.028 | [4] 0.011 | [5] 0.221 | [6] 0.047 | [7] -0.004 | [8] 0.287 | [9] -0.378

HSP90AB4P (UniProt Q58FF6)
inactive: erlotinib 0.168 | [1] 0.1 | [2] -0.098 | [3] 0.113 | [4] 0.015 | [5] 0.081 | [7] 0.141 | [8] -0.152 | [9] -0.077

Additional entries.

HSCB (UniProt Q8IWL3)
inactive: erlotinib 0.132 | [1] 0.093 | [2] 0.066 | [3] -0.149 | [4] 0.071 | [6] 0.02 | [7] -0.017 | [8] 0.019 | [9] 0.04

HSPBP1 isoform 3 (UniProt Q9NZL4)
inactive: erlotinib 0.01 | [1] 0.103 | [2] 0.019 | [3] -0.004 | [4] -0.01 | [5] 0.057 | [6] 0.06 | [7] -0.008 | [8] 0.027 | [9] -0.087

ICA1 isoform 2 (UniProt Q05084)
inactive: erlotinib 0.064 | [1] 0.017 | [2] -0.013 | [3] 0.031 | [4] -0.017 | [6] -0.086 | [7] 0.02

HINT2 (UniProt Q9BX68)
inactive: erlotinib -0.004 | [1] 0.034 | [3] 0.009 | [4] 0.077 | [5] 0.104 | [6] 0.088 | [7] -0.048 | [8] -0.078 | [9] -0.168

HSPA8 (UniProt E9PN89)
inactive: erlotinib 0.051 | [1] -0.193 | [2] -0.191 | [3] -0.061 | [4] 0.358 | [5] 0.06 | [7] -0.133 | [8] 0.267 | [9] -0.027

HIC2 (UniProt Q96JB3)
inactive: erlotinib 0.128 | [1] 0 | [2] -0.17 | [3] 0.028 | [4] -0.159 | [5] -0.08 | [6] 0.012 | [7] -0.266 | [8] -0.023 | [9] -0.09

HOOK3 (UniProt Q86VS8)
inactive: erlotinib 0.04 | [1] 0.039 | [2] 0.009 | [3] -0.008 | [4] 0.055 | [5] 0.032 | [6] -0.002 | [7] -0.036 | [8] -0.005 | [9] -0.024

HNRNPA3 (UniProt P51991)
inactive: erlotinib -0.179 | [1] -0.103 | [2] -0.583 | [3] 0.03 | [4] -0.073 | [5] 0.046 | [6] -0.085 | [7] -0.009 | [8] -0.027 | [9] -0.085

HYOU1, A0A494C039
inactive: erlotinib -0.036 | [1] -0.156 | [2] -0.023 | [3] -0.01 | [4] 0.135 | [5] 0.048 | [7] 0.164 | [8] 0.061 | [9] 0.083

HNRNPA0 (UniProt Q13151)
inactive: erlotinib -0.105 | [1] -0.112 | [2] -0.374 | [3] 0.171 | [4] 0.04 | [5] 0.072 | [7] -0.055 | [8] -0.025 | [9] 0.057

HSPA2 (UniProt P54652)
inactive: erlotinib 0.623 | [1] -0.047 | [3] -0.182 | [4] 0.022 | [5] 0.058 | [6] -0.095 | [7] 0.192

HMGB2 (UniProt P26583)
inactive: erlotinib -0.014 | [1] 0.016 | [2] 0.068 | [3] 0.023 | [4] -0.045 | [5] -0.015 | [6] 0.043 | [7] 0.054 | [8] -0.024 | [9] 0.021

HMGN3 (UniProt Q15651)
inactive: erlotinib 0.048 | [1] -0.016 | [2] 0.09 | [3] 0.061 | [4] -0.092 | [5] 0.02 | [6] -0.046 | [7] 0.007 | [8] -0.084 | [9] -0.014
